From PMC10008690
Where two headings read alike, the source gives them in different places. These are yes or no findings as the source states them, for the method shown. In cells and extracts the contact can be indirect. Some results given as binding are weak or reduced against the parent protein; the word gives no strength. For part of these data: Tags and fused reporters may be left off the sequences shown. Each block holds one molecule with its values, some of them ahead of it.

Chains of the proteins cited; added tags and fusions are not shown.
UniProt P46934: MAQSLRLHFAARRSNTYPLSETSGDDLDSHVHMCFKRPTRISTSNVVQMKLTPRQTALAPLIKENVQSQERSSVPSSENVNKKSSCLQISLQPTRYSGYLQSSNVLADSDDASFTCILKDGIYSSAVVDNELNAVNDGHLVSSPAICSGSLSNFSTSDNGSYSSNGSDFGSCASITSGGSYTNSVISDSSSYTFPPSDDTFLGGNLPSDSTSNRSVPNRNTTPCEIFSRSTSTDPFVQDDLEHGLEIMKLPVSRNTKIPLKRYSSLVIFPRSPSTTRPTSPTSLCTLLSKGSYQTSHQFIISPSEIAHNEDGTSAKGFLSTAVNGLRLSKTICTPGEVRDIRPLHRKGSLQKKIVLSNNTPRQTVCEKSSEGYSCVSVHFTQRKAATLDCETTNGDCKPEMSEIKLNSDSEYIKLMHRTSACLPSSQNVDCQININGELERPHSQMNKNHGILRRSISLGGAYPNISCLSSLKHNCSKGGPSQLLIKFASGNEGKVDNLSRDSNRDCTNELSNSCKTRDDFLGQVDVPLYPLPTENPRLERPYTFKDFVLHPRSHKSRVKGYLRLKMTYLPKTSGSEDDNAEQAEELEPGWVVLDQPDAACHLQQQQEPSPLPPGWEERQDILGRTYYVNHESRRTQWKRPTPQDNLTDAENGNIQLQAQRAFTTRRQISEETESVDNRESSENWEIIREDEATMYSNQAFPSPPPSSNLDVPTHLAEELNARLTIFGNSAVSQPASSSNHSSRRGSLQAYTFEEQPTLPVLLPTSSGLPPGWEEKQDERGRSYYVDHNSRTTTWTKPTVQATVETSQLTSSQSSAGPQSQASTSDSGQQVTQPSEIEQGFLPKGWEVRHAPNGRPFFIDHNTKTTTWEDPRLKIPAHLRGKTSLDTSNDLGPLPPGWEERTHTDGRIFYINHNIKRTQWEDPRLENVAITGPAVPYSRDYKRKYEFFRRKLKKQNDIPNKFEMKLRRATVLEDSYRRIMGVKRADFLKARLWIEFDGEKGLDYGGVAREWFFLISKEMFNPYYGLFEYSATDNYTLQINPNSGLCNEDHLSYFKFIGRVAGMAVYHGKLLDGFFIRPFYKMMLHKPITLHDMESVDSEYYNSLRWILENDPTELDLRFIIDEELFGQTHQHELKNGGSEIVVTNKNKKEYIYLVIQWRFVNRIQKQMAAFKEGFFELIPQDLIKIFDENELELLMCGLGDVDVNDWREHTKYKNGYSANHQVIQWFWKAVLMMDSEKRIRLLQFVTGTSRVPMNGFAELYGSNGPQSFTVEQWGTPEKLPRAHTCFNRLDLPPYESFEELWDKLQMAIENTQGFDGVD

How the values were obtained:
[1] = target: T1, GST-HMGCL fusion protein (human) (UniProt P35914); test: pull-down; 10 μg of GST fusion protein incubated with cell lysates for 4 hours, then GST-Sepharose beads for 4 hours; western blot; only the target purified
T1 sequence: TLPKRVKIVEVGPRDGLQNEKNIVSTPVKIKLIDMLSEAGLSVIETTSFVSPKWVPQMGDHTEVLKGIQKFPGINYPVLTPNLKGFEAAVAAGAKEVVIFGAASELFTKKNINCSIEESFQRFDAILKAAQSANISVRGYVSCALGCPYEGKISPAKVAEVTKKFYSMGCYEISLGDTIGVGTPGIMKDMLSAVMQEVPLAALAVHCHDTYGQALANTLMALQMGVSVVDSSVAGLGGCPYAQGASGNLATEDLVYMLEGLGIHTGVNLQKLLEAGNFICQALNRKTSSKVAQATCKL

[2] = target: T2, exogenous HMGCL (in 293T cells) (human) (UniProt P35914); test: co-IP; exogenous HMGCL and NEDD4 expressed in 293T cells; lysis in 50 mM Tris-HCl pH 8.0, 150 mM NaCl, 1% NP-40; Flag beads overnight at 4 °C; western blot
T2 sequence: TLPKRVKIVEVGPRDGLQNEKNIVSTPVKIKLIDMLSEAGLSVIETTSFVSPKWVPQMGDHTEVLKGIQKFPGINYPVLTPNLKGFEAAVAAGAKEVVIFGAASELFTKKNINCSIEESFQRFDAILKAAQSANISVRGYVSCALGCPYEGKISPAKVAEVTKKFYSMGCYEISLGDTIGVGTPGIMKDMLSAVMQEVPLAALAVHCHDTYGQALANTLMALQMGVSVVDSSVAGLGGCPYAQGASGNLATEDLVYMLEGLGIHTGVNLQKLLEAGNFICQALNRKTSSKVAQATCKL

[3] = target: T3, endogenous IKKβ (human (endogenous in A549 and H1299)) (UniProt O14920); test: co-IP; endogenous proteins, A549 and H1299 cells lysed with IP lysis buffer; anti-IKKβ antibody overnight; western blot
T3 sequence: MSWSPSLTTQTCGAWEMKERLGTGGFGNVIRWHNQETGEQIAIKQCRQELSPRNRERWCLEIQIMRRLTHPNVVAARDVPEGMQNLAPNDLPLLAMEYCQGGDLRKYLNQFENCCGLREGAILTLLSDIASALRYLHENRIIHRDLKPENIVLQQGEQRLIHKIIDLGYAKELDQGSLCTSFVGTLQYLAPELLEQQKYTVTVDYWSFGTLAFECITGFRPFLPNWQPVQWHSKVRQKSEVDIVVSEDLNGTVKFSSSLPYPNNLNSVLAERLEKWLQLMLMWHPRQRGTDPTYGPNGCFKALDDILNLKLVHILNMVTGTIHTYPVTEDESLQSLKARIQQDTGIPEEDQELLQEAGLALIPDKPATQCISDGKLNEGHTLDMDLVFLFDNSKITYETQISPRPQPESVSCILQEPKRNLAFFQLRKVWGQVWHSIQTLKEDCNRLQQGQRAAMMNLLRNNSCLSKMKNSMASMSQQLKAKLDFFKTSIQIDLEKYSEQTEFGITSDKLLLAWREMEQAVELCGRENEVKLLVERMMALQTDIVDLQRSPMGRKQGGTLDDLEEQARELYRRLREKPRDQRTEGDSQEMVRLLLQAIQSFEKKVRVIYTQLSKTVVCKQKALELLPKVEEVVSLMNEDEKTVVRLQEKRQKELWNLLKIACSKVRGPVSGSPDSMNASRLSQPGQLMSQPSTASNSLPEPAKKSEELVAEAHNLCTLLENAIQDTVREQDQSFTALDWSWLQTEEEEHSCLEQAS

[4] = target: endogenous NEDD4 (human (endogenous in H1299 and A549)) (UniProt P46934); test: co-IP; endogenous proteins, H1299 and A549 cells lysed with IP lysis buffer; anti-NEDD4 antibody overnight; western blot
[5] = target: T4, Flag-HMGCL (3-hydroxy-3-methylglutaryl-CoA lyase, exogenous, in lung cancer cells) (human) (UniProt P35914); test: co-IP; HA-IKKβ and Flag-HMGCL expressed in lung cancer cells; lysis 48 h after transfection in 50 mM Tris-HCl pH 8.0, 150 mM NaCl, 1% NP-40; Flag beads overnight at 4 °C; western blot
T4 sequence: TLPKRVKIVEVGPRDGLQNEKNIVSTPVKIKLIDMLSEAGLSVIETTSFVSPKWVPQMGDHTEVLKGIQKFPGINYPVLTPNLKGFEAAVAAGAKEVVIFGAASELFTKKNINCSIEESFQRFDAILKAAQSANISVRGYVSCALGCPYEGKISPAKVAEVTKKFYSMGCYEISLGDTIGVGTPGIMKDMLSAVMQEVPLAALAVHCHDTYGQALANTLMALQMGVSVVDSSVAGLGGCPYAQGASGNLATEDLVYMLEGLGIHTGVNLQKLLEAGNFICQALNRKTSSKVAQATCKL

[6] = target: T1, GST-HMGCL fusion protein (human); test: pull-down; 10 μg of GST fusion protein incubated with cell lysates for 4 hours, then GST-Sepharose beads for 4 hours; western blot; only the target purified; remark: listed apart in the source

binding [1]: binds
Molecule: endogenous NEDD4 (from UniProt P46934 1-1319) (enzyme)

binding [2]: binds
Molecule: exogenous NEDD4 (in 293T cells) (from UniProt P46934 1-1319) (enzyme)

binding [3]: binds
binding [4]: binds
B1: endogenous HMGCL (enzyme, UniProt P35914 28-325)
chain: TLPKRVKIVEVGPRDGLQNEKNIVSTPVKIKLIDMLSEAGLSVIETTSFVSPKWVPQMGDHTEVLKGIQKFPGINYPVLTPNLKGFEAAVAAGAKEVVIFGAASELFTKKNINCSIEESFQRFDAILKAAQSANISVRGYVSCALGCPYEGKISPAKVAEVTKKFYSMGCYEISLGDTIGVGTPGIMKDMLSAVMQEVPLAALAVHCHDTYGQALANTLMALQMGVSVVDSSVAGLGGCPYAQGASGNLATEDLVYMLEGLGIHTGVNLQKLLEAGNFICQALNRKTSSKVAQATCKL

binding [5]: binds
B2: HA-IKKβ (exogenous) (enzyme, UniProt O14920 1-756)
chain: MSWSPSLTTQTCGAWEMKERLGTGGFGNVIRWHNQETGEQIAIKQCRQELSPRNRERWCLEIQIMRRLTHPNVVAARDVPEGMQNLAPNDLPLLAMEYCQGGDLRKYLNQFENCCGLREGAILTLLSDIASALRYLHENRIIHRDLKPENIVLQQGEQRLIHKIIDLGYAKELDQGSLCTSFVGTLQYLAPELLEQQKYTVTVDYWSFGTLAFECITGFRPFLPNWQPVQWHSKVRQKSEVDIVVSEDLNGTVKFSSSLPYPNNLNSVLAERLEKWLQLMLMWHPRQRGTDPTYGPNGCFKALDDILNLKLVHILNMVTGTIHTYPVTEDESLQSLKARIQQDTGIPEEDQELLQEAGLALIPDKPATQCISDGKLNEGHTLDMDLVFLFDNSKITYETQISPRPQPESVSCILQEPKRNLAFFQLRKVWGQVWHSIQTLKEDCNRLQQGQRAAMMNLLRNNSCLSKMKNSMASMSQQLKAKLDFFKTSIQIDLEKYSEQTEFGITSDKLLLAWREMEQAVELCGRENEVKLLVERMMALQTDIVDLQRSPMGRKQGGTLDDLEEQARELYRRLREKPRDQRTEGDSQEMVRLLLQAIQSFEKKVRVIYTQLSKTVVCKQKALELLPKVEEVVSLMNEDEKTVVRLQEKRQKELWNLLKIACSKVRGPVSGSPDSMNASRLSQPGQLMSQPSTASNSLPEPAKKSEELVAEAHNLCTLLENAIQDTVREQDQSFTALDWSWLQTEEEEHSCLEQAS

binding [6]: binds
B3: endogenous IKKβ (enzyme, UniProt O14920 1-756)
chain: MSWSPSLTTQTCGAWEMKERLGTGGFGNVIRWHNQETGEQIAIKQCRQELSPRNRERWCLEIQIMRRLTHPNVVAARDVPEGMQNLAPNDLPLLAMEYCQGGDLRKYLNQFENCCGLREGAILTLLSDIASALRYLHENRIIHRDLKPENIVLQQGEQRLIHKIIDLGYAKELDQGSLCTSFVGTLQYLAPELLEQQKYTVTVDYWSFGTLAFECITGFRPFLPNWQPVQWHSKVRQKSEVDIVVSEDLNGTVKFSSSLPYPNNLNSVLAERLEKWLQLMLMWHPRQRGTDPTYGPNGCFKALDDILNLKLVHILNMVTGTIHTYPVTEDESLQSLKARIQQDTGIPEEDQELLQEAGLALIPDKPATQCISDGKLNEGHTLDMDLVFLFDNSKITYETQISPRPQPESVSCILQEPKRNLAFFQLRKVWGQVWHSIQTLKEDCNRLQQGQRAAMMNLLRNNSCLSKMKNSMASMSQQLKAKLDFFKTSIQIDLEKYSEQTEFGITSDKLLLAWREMEQAVELCGRENEVKLLVERMMALQTDIVDLQRSPMGRKQGGTLDDLEEQARELYRRLREKPRDQRTEGDSQEMVRLLLQAIQSFEKKVRVIYTQLSKTVVCKQKALELLPKVEEVVSLMNEDEKTVVRLQEKRQKELWNLLKIACSKVRGPVSGSPDSMNASRLSQPGQLMSQPSTASNSLPEPAKKSEELVAEAHNLCTLLENAIQDTVREQDQSFTALDWSWLQTEEEEHSCLEQAS
